No constants are given. Whether binding was seen depends on the method and setting. Binding seen in cells or lysates may run through a third protein. Tags and fused reporters may be left off the sequences shown.
Tests used:
Assay in all cases: co-IP; HEK293T co-transfected for 24–36 h; RIPA lysis buffer (50 mM Tris–HCl pH 7.4, 150 mM NaCl, 1% NP-40, 1 mM EDTA, 5% glycerol); anti-Flag or anti-HA antibody at 4°C overnight, protein G agarose; washes with 300 mM NaCl; immunoblot
Flag-p65 = Flag-p65 (UniProt Q04206)
Flag-RIP1 = Flag-RIP1 (UniProt Q13546)
Flag-IKKe = target: T1, Flag-IKKe (UniProt Q14164)
T1 sequence: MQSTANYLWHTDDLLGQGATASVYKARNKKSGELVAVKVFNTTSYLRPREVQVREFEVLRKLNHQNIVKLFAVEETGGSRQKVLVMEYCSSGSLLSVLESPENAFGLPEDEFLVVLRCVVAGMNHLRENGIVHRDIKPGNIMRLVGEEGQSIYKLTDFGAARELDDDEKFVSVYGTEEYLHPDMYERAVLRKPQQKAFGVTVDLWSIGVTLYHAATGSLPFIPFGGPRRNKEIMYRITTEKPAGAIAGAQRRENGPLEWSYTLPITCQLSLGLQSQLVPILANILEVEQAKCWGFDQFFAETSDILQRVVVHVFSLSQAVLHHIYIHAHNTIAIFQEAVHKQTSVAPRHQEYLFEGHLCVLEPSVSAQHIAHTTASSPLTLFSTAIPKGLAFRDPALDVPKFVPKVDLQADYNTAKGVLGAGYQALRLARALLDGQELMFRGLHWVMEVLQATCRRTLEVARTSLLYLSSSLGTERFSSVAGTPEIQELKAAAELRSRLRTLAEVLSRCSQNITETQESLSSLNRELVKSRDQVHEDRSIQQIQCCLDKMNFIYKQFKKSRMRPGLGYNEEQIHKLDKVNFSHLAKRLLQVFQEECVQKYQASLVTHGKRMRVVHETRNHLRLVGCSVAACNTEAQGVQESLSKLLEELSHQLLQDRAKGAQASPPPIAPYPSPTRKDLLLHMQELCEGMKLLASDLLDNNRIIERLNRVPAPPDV

Protein sequences, listed by entry. Tags and fused reporters are not part of them. Residues count along the entry.
UniProt Q04206: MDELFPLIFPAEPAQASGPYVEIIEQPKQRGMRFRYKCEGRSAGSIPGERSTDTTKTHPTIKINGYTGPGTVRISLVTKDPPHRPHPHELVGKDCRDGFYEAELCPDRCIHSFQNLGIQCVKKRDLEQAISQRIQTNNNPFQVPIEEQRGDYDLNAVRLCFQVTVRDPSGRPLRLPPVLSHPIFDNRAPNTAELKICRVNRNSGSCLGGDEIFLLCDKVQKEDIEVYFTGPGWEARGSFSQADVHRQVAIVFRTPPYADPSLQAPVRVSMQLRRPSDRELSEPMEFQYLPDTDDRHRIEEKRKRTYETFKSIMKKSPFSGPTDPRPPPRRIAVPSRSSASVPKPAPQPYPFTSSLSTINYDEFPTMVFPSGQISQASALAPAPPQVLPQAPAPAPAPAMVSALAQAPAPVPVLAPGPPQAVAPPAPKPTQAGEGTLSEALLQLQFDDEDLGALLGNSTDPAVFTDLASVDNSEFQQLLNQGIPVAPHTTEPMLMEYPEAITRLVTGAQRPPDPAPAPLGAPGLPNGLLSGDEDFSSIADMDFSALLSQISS
UniProt Q13546: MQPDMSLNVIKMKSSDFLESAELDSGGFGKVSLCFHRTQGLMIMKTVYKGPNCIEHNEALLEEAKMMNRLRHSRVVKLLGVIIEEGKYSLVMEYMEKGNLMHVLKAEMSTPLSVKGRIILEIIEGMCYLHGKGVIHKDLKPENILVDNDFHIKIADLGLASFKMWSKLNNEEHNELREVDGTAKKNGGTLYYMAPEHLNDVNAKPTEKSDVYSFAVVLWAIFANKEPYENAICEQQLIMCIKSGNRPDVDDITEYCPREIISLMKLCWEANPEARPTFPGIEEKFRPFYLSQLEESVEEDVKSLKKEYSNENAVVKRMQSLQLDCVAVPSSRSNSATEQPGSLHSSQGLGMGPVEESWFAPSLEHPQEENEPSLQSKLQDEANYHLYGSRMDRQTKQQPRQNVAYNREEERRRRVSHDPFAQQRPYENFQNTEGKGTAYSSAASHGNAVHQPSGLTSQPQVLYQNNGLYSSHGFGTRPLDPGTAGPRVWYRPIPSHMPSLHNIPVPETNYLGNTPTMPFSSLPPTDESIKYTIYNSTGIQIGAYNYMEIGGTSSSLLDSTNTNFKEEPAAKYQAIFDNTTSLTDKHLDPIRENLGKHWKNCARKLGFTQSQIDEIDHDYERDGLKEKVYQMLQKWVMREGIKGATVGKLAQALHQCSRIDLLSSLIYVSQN
UniProt Q86WV6: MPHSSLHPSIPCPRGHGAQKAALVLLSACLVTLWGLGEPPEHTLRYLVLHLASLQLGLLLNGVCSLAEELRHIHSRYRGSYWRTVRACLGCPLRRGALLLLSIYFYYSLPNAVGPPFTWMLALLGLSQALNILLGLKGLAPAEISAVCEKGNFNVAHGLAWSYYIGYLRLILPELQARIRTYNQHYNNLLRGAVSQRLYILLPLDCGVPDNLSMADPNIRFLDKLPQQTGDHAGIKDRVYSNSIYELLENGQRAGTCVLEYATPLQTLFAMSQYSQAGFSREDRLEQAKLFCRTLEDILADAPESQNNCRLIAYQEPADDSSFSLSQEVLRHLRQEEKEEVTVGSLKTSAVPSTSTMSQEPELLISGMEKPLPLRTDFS
UniProt P19838, residues 1-433: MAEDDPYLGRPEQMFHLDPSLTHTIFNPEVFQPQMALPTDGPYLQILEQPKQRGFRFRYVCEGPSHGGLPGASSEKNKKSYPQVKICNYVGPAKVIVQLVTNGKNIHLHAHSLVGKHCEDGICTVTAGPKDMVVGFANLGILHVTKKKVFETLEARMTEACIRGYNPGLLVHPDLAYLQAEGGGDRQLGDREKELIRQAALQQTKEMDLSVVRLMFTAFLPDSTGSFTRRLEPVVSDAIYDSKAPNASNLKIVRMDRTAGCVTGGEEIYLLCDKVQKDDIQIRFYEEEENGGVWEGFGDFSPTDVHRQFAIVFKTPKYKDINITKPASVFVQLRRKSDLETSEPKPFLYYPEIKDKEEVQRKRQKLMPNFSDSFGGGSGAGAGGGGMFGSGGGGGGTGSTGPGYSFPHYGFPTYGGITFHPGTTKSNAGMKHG
UniProt P25963: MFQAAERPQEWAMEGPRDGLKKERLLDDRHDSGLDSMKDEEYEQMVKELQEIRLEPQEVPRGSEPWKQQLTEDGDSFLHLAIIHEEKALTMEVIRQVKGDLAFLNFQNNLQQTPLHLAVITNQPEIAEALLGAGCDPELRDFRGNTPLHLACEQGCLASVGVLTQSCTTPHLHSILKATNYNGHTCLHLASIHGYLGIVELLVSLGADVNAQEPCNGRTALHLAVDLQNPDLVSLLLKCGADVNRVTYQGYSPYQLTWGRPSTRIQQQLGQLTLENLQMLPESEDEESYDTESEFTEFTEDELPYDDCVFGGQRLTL

Flag-STING = Flag-STING (UniProt Q86WV6)
Flag-IRF7 = target: T2, Flag-IRF7 (UniProt Q92985)
T2 sequence: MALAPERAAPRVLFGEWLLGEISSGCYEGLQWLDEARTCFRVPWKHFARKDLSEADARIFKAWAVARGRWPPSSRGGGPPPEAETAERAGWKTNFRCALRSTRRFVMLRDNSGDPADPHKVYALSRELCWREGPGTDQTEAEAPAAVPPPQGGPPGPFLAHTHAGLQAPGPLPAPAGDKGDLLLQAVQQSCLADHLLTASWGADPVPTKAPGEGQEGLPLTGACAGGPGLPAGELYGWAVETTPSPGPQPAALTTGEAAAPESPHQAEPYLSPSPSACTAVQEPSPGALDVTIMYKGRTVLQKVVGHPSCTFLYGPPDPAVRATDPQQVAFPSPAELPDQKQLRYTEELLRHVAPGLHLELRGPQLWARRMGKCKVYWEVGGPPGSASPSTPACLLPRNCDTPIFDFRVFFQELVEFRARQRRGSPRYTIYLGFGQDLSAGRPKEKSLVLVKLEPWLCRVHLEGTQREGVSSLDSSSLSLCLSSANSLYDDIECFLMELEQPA

Flag-p50 = Flag-p50 (UniProt P19838)
Flag-IRF3 = target: T3, Flag-IRF3 (UniProt Q14653)
T3 sequence: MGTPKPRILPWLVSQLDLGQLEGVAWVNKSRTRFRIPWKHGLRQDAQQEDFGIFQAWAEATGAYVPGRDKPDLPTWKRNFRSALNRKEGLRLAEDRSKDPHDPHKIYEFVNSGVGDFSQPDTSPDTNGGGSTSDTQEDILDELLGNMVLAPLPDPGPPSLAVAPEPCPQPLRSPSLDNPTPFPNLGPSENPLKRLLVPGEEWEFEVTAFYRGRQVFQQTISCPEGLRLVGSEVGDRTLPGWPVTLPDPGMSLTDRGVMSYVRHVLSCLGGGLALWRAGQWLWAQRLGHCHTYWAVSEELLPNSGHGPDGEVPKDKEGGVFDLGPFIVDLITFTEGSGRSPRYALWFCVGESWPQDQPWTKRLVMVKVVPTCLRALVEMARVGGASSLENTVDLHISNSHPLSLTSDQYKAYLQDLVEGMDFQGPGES

Flag-TBK1 = target: T4, Flag-TBK1 (UniProt Q9UHD2)
T4 sequence: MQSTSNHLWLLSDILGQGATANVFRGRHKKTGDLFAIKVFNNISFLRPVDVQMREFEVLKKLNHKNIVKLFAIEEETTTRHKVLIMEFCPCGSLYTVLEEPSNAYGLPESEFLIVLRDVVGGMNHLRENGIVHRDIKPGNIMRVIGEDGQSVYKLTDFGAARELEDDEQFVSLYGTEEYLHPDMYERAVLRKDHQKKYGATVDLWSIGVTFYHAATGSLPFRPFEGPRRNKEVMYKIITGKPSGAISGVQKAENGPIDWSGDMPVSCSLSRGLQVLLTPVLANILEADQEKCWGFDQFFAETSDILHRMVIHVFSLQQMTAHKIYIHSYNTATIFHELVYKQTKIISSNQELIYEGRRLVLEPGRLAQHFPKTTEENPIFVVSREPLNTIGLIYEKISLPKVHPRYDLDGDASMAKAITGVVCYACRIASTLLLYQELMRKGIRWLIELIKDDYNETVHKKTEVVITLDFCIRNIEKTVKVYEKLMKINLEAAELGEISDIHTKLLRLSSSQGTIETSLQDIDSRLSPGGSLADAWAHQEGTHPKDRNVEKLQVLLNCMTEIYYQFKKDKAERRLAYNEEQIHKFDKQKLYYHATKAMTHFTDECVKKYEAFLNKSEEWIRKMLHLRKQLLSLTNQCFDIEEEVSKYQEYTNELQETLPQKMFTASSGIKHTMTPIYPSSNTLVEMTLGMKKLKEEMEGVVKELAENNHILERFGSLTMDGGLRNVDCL

Flag-IkBα = Flag-IkBα (UniProt P25963)

Measured: binding

B1: HA-ASB17 (protein, UniProt Q8WXJ9 1-295)
chain: MSKSTKLCGKTSCPRSNIFCNLLDKIVKRPSLQFLGQWGYHCYEPRIYRSLAKILRYVDLDGFDALLTDYIAFVEKSGYRFEVSFNLDFTEICVNTILYWVFARKGNPDFVELLLKKTKDYVQDRSCNLALIWRTFTPVYCPSPLSGITPLFYVAQTRQSNIFKILLQYGILEREKNPINIVLTIVLYPSRVRVMVDRELADIHEDAKTCLVLCSRVLSVISVKEIKTQLSLGRHPIISNWFDYIPSTRYKDPCELLHLCRLTIRNQLLTNNMLPDGIFSLLIPARLQNYLNLEI
no binding: all assays above

From PMC8842666
